PMC8327268
Results are given in words; binding and its absence hold for the method and conditions named. Binding seen in cells or lysates may run through a third protein. Some results given as binding are weak or reduced against the parent protein; the word gives no strength.

Sequences of proteins named here, by UniProt entry; tags and fusion partners are left off.
UniProt Q7TQN4: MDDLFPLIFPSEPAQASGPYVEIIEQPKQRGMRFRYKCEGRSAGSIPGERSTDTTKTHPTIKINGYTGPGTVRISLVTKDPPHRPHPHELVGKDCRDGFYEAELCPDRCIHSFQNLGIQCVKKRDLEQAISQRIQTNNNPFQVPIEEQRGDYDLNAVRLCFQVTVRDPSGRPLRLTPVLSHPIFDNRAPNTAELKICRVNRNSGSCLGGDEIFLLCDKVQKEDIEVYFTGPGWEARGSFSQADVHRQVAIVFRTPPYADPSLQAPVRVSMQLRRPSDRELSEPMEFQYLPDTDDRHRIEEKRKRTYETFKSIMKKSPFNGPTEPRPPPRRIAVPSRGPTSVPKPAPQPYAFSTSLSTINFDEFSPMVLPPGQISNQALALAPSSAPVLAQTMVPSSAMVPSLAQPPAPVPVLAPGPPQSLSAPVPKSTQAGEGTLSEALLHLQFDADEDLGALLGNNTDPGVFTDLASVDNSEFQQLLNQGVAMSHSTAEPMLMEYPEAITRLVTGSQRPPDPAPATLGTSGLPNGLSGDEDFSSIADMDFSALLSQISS

Target: T1, integrin-associated protein (CD47) (rat (endogenous in H9c2)) (UniProt P97829)
T1 sequence: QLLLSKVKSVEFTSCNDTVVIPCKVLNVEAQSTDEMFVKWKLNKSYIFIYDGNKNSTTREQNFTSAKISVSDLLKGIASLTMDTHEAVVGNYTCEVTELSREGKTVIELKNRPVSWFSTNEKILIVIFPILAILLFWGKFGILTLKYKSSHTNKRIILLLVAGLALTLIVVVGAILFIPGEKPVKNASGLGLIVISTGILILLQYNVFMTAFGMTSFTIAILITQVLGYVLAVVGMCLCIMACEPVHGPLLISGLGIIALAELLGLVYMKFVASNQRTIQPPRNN
Test: co-IP; H9c2 whole-cell lysates (RIPA buffer) incubated with anti-CD47 or anti-p65 at 4°C for 12 h, then protein A/G magnetic beads for 2 h; three washes with cold PBS; western blot; cells also treated with a GSK-3β inhibitor (the paper says it weakens the interaction)

## p65 NF-κB (from UniProt Q7TQN4 1-550)
  binding: binds
